Test results as given in PMC3923681.
These are yes or no findings as the source states them, for the method shown. In cells and extracts the contact can be indirect.

Chains of the proteins cited; added tags and fusions are not shown. Lines headed by an entry give the natural chain unless they say otherwise; changes in a name come on top. A line that says so, or that is headed by a name, gives the form on record, which may keep a tag or linker.
UniProt Q9UQE7: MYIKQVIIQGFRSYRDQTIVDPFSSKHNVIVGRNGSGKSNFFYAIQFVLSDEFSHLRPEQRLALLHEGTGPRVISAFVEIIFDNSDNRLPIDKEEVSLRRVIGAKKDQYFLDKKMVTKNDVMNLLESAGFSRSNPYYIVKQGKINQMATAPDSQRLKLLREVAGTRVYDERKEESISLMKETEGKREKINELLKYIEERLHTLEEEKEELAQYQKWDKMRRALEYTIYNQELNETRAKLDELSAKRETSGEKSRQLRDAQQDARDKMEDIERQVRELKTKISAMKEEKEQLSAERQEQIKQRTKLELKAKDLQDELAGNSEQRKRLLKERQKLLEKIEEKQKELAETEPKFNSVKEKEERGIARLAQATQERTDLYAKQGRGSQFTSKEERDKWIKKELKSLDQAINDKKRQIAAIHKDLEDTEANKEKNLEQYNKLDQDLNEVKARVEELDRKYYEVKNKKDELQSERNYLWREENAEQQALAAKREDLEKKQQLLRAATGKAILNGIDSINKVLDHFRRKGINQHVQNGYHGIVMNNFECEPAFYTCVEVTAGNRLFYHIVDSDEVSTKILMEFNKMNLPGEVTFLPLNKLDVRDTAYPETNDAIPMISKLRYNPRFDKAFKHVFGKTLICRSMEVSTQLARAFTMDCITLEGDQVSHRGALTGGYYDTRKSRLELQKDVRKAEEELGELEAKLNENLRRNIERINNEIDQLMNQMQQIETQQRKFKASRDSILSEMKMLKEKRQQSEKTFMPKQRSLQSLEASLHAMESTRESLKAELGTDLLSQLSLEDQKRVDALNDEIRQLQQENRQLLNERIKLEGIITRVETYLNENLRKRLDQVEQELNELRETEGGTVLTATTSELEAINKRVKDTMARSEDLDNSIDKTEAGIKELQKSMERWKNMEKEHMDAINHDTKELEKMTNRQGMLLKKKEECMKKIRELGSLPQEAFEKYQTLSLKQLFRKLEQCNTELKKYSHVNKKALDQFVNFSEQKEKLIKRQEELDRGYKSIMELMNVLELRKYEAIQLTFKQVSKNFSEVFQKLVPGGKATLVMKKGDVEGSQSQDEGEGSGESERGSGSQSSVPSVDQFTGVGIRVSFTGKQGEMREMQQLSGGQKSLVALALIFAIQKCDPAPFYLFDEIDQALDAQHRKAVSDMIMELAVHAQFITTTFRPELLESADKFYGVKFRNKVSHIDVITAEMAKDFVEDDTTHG
NIPBL isoform B (short isoform) (Q6KC79-2, form named): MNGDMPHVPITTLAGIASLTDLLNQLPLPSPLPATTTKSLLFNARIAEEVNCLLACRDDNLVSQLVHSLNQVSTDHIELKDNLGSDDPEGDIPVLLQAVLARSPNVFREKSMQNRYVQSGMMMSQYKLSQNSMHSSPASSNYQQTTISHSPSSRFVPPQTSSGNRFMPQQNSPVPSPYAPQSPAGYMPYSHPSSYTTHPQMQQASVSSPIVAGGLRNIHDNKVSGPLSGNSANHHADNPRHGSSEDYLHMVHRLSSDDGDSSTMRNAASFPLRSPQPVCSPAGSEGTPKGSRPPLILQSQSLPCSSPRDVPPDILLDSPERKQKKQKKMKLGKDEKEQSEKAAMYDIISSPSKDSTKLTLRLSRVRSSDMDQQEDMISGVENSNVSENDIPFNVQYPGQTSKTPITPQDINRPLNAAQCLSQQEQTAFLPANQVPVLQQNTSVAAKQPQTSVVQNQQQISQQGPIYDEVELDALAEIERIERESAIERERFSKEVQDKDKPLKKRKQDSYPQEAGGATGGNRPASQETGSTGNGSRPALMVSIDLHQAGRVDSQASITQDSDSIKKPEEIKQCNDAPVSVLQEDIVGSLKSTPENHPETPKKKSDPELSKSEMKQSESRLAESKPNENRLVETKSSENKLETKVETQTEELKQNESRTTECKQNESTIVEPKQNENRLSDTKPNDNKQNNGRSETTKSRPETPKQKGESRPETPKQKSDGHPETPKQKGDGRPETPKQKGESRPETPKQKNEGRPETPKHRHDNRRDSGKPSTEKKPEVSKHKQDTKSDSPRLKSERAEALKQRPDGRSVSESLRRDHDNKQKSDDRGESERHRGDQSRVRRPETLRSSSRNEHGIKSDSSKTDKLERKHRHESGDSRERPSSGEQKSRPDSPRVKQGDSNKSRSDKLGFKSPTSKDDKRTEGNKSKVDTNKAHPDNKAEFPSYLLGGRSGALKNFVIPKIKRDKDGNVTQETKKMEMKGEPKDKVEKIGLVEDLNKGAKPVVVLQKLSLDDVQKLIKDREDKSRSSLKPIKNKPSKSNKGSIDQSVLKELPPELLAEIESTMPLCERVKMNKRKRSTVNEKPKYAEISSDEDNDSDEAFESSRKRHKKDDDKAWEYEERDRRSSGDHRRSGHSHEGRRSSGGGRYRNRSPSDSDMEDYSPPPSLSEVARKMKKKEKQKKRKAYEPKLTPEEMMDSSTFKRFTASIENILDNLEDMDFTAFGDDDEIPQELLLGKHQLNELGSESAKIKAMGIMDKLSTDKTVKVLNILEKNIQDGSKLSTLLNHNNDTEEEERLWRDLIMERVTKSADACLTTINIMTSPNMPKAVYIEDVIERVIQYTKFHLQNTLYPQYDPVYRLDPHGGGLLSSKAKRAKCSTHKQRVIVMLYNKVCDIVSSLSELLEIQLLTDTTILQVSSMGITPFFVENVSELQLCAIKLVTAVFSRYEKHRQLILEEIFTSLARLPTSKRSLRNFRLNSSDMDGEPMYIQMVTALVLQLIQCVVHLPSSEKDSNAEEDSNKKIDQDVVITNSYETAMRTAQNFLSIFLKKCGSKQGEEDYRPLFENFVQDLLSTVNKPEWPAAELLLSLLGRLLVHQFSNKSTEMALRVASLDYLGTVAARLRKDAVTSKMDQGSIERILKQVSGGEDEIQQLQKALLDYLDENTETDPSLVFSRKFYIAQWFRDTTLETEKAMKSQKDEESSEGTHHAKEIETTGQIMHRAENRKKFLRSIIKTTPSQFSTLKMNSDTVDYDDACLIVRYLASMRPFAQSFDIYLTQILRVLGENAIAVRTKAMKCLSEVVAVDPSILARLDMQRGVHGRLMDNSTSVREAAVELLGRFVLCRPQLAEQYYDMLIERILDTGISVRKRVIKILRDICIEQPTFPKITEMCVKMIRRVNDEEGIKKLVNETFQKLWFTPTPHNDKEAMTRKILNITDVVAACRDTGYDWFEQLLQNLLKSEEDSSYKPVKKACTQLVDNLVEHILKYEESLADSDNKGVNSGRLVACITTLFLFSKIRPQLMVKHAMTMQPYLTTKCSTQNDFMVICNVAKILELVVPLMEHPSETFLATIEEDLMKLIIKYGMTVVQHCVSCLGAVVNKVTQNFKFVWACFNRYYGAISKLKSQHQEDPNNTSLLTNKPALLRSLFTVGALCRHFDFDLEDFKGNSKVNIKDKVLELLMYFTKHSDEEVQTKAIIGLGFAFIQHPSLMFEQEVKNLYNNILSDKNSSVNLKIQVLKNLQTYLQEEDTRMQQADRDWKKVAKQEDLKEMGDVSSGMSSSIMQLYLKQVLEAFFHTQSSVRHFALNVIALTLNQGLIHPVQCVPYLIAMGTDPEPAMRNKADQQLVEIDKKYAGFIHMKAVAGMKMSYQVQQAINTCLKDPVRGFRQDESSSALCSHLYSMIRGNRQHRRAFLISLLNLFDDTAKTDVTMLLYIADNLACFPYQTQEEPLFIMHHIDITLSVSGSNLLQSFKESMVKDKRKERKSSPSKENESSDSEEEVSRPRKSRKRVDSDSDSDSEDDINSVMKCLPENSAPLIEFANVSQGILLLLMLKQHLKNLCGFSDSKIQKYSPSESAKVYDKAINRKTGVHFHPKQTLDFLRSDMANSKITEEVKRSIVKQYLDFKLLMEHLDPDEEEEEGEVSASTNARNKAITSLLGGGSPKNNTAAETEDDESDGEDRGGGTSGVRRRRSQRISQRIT

Molecular target: SMC3 (cohesin subunit) (human (endogenous in HeLa)) (UniProt Q9UQE7)
Assay: co-IP; anti-SMC3 antibodies, nuclear extract of G1-phase enriched HeLa cells (0.4 M NaCl extraction) diluted to 50% with IP buffer (20 mM Tris-HCl pH 7.5, 100 mM NaCl, 5 mM MgCl2, 0.2% NP40, 1 mM NaF, 0.5 mM DTT), 1 h at 4°C, Protein A beads, 3 washes; Western blots probed with NIPBL#3 (isoform A) and NIPBL#4 (isoform B)

For “NIPBL isoform B (short isoform) (from UniProt Q6KC79-2 1-2697)”, the binding was “no binding”.
